# Laboratory results as given in paper PMC5996148.
# “And” between values parts separate entries of the source, which are not always exact repeats. Equal values may be shown once. This is one part of the list.
# Tests used:
# Test in all cases: protein microarray (ProtoArray v5.0), streptavidin-Alexa Fluor 647
# Details in all cases: 3'-biotin; 20 mM Tris (pH 7.5), 5 mM MgCl2, 100 mM KCl, 0.1% Tween-20, A/T-rich and random oligonucleotide blockers; temperature not stated; high values mean tight binding
# AKR1C1 (human) = tested on: AKR1C1 (human)
# ALB (human) = tested on: ALB (human)
# ALDH3A1 (human) = tested on: ALDH3A1 (human)
# ALDOC (human) = tested on: ALDOC (human)
# ALG13 (human) = tested on: ALG13 (human)
# ALOX15 (human) = tested on: ALOX15 (human)
# ALOX15B (human) = tested on: ALOX15B (human)
# ALOX5 (human) = tested on: ALOX5 (human)
# ALOX5AP (human) = tested on: ALOX5AP (human)
# ALS2CL (human) = tested on: ALS2CL (human)
# AMDHD1 (human) = tested on: AMDHD1 (human)
# AMELX (human) = tested on: AMELX (human)
# ANKHD1 (human) = tested on: ANKHD1 (human)
# ANKRD45 (human) = tested on: ANKRD45 (human)
# ANKRD50 (human) = tested on: ANKRD50 (human)
# ANPEP (human) = tested on: ANPEP (human)
# ANXA6 (human) = tested on: ANXA6 (human)
# ANXA7 (human) = tested on: ANXA7 (human)
# ANXA9 (human) = tested on: ANXA9 (human)
# APBA2BP (human) = tested on: APBA2BP (human)
sequence,measurement,setting,value
GGTGACAGGGGTATGGGGAGGGG [G4-2 biotinylated (Ct1)],binding signal,AKR1C1 (human),-0.391 z-score
same,binding signal,ALB (human),-0.373 z-score and -0.395 z-score
same,binding signal,ALDH3A1 (human),-0.376 z-score
same,binding signal,ALDOC (human),-0.373 z-score
same,binding signal,ALG13 (human),-0.382 z-score
same,binding signal,ALOX15 (human),-0.372 z-score
same,binding signal,ALOX15B (human),-0.396 z-score
same,binding signal,ALOX5 (human),-0.386 z-score
same,binding signal,ALOX5AP (human),-0.369 z-score
same,binding signal,ALS2CL (human),-0.363 z-score
same,binding signal,AMDHD1 (human),-0.371 z-score
same,binding signal,AMELX (human),-0.388 z-score
same,binding signal,ANKHD1 (human),-0.393 z-score
same,binding signal,ANKRD45 (human),-0.383 z-score
same,binding signal,ANKRD50 (human),-0.383 z-score
same,binding signal,ANPEP (human),-0.364 z-score
same,binding signal,ANXA6 (human),-0.37 z-score
same,binding signal,ANXA7 (human),-0.386 z-score
same,binding signal,ANXA9 (human),-0.407 z-score
same,binding signal,APBA2BP (human),-0.391 z-score

# An excerpt of these results, with bars between the fields.
sequence | measurement | setting | value
GGTGACAGGGGTATGGGGAGGGG [G4-2 biotinylated (Ct1)] | binding signal | ALDOC (human) | -0.373 z-score
same | binding signal | ALOX15 (human) | -0.372 z-score
